Experimental data reported in patent US20200102349A1, “PEPTIDE REAGENTS AND METHODS FOR DETECTION AND TARGETING OF DYSPLASIA, EARLY CANCER AND CANCER” (THE REGENTS OF THE UNIVERSITY OF MICHIGAN, priority 2014, published 2020).
Results are given in words; binding and its absence hold for the method and conditions named. Some entries that bind do so weakly or less than the wild type.

Experiments:
[1] = target: Epidermal growth factor receptor (EGFR), human, on cells (human) (UniProt P00533); experiment: competition with QRH*-Cy5.5 on HT29 cells, fluorescence microscopy
[2] = target: Epidermal growth factor receptor (EGFR), human, on cells (human) (UniProt P00533); experiment: competition: unlabeled QRH* at 0-500 µM, then 5 µM QRH*-Cy5.5, HT29 cells, fluorescence microscopy

binding [1]: binds | binding [2]: binds
Binder: QRHKPREGGGSK [unlabeled QRH* peptide]
